Assay results from paper PMC6407677.
These are yes or no findings as the source states them, for the method shown. In cells and extracts the contact can be indirect. Where a sequence is shown, tags or fusion partners need not be part of it.

Biological target: T1, GST-POPX2 (human) (UniProt P49593)
T1 sequence: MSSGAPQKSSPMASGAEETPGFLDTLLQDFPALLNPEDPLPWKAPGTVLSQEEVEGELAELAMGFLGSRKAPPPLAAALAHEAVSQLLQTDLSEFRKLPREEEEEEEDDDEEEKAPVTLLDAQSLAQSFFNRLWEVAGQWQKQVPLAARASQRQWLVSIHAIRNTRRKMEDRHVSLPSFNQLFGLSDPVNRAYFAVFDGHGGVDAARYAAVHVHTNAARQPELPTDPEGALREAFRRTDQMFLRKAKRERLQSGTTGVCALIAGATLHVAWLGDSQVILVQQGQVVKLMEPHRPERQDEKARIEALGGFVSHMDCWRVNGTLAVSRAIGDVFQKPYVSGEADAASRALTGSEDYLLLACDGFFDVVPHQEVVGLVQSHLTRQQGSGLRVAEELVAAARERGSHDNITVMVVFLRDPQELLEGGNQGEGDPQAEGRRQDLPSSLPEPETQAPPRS
Assay: co-IP; lysates of HEK293 cells co-expressing GST-POPX2 and the Flag- or Myc-tagged partner; 1 mg lysate on glutathione sepharose beads overnight at 4°C; 25 mM Tris pH 7.5, 150 mM NaCl, 0.5% Triton-X; Western blot with anti-Flag or anti-Myc

binding: no binding
Substance: Myc-MOB1 (human)
